The record followed here is the M2OR odorant receptor database.

Chains of the proteins cited; added tags and fusions are not shown. Lines headed by an entry give the natural chain unless they say otherwise; changes in a name come on top.
UniProt P0C7N5: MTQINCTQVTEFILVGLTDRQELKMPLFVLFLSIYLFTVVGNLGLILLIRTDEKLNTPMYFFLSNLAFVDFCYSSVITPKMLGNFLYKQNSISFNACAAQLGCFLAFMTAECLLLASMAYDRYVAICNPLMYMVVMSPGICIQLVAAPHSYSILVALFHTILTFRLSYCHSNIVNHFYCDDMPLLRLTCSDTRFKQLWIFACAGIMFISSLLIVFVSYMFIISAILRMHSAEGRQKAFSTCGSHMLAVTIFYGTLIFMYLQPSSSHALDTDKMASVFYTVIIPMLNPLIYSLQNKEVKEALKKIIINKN

Molecules are shown by their SMILES. The entries are a selection whose mix differs from that of the whole data set. Calls are pooled over several reports, among them a noisy single-well screen. Some of the results follow.

What all share (conditions): stereoisomer not certain
In one experiment the target is OR8S1 (Homo sapiens) (UniProt Q8NH09). In a few lines:
(§1)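 Each entry records the cell line, G-protein, co-transfected protein and tags used. Methods varied with the source, often transient luciferase assays in mammalian cell lines. A receptor–molecule pair is called responsive (active) if the original authors judged its signal statistically different from baseline and non-responsive (inactive) otherwise.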

A further experiment addresses OR8U1 (Homo sapiens) (UniProt Q8NH10). Summed up: as §1
In the next experiment the target is OR8U8 (Homo sapiens) (UniProt P0C7N1). In a few lines: as §1
A further experiment deals with OR8U9 (Homo sapiens) (UniProt P0C7N5). In a few lines: as §1
A further experiment concerns T1, OR8K5.
T1 sequence (whole entry): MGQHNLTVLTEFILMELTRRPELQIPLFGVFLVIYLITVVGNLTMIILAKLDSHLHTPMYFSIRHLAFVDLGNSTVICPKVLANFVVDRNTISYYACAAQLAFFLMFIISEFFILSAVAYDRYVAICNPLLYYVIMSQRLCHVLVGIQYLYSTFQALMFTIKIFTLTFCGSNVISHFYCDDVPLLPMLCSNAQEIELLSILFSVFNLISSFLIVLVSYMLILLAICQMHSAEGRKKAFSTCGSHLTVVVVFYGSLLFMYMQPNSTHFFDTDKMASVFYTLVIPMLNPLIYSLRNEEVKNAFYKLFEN
Summed up:
as §1

In a further experiment the test system is T2, OR8S1.
T2 sequence (whole entry): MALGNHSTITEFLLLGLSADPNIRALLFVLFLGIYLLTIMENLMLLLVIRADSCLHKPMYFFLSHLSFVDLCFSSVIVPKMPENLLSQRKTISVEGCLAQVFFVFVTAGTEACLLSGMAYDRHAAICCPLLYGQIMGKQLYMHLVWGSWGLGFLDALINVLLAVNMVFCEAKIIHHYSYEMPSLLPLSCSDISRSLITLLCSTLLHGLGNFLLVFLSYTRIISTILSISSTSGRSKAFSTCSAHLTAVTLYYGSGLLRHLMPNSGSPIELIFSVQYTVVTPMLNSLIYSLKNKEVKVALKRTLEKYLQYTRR
Summed up: as §1

Another experiment concerns T3, OR8U1.
T3 sequence (whole entry): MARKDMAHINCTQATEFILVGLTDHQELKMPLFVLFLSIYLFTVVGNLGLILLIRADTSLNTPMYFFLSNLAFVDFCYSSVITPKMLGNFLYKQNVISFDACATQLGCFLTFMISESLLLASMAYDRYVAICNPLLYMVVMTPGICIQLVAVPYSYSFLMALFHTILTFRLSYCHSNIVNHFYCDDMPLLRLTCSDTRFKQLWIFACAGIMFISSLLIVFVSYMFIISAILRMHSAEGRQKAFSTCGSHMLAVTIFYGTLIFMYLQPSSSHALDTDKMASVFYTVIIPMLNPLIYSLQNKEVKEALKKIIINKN
In a few lines:
as §1

A further experiment has as its system T4, OR8U8.
T4 sequence (whole entry): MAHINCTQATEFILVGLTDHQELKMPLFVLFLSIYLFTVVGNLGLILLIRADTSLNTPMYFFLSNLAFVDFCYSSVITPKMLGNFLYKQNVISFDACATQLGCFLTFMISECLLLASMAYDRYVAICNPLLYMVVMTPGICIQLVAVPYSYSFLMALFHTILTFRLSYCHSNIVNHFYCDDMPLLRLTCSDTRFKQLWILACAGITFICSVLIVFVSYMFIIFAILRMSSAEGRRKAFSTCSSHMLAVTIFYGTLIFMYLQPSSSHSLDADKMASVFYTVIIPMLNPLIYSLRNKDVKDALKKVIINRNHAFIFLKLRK
In a few lines: as §1

Take `CC12C=CCC1C1CCC3CC(=O)CCC3(C)C1CC2` (centres undefined): the “odorant receptor agonist call” value with OR8S1 (Homo sapiens), with OR8U1 (Homo sapiens), with OR8U8 (Homo sapiens) and with OR8U9 (Homo sapiens) was “inactive” in each case.
`CCCC(=O)O`: the “odorant receptor agonist call” value in the experiment with OR8K5, in the experiment with OR8S1, in the experiment on OR8U1 and with OR8U8 was “inactive” throughout.
On to `CCCCCCOC(=O)CCC`, for which the “odorant receptor agonist call” value in the experiment on OR8K5, in the experiment on OR8S1, in the experiment on OR8U1 and in the experiment with OR8U8 was “inactive” in each case.
Regarding `COC(=O)c1ccccc1`, the “odorant receptor agonist call” value with OR8K5, with OR8S1, with OR8U1 and in the experiment with OR8U8 was “inactive” in each case.
With `CC12CCC(C1)C(C)(C)C2=O` (centres undefined), the “odorant receptor agonist call” value in the experiment on OR8K5, in the experiment with OR8S1, in the experiment with OR8U1 and in the experiment on OR8U8 was “inactive” each time.
Take `CC(=O)OC(C)(C)C1CC=C(C)CC1` (centres undefined): the “odorant receptor agonist call” value in the experiment on OR8K5, with OR8S1, in the experiment on OR8U1 and in the experiment with OR8U8 was “inactive” in each case.
For the compound `CC12CCC(CC1)C(C)(C)O2`, the “odorant receptor agonist call” value with OR8K5, with OR8S1, with OR8U1 and with OR8U8 was “inactive” each time.
On to `CC1COCc2cc3c(cc21)C(C)(C)C(C)C3(C)C` (centres undefined), for which the “odorant receptor agonist call” value with OR8K5, with OR8S1, with OR8U1 and with OR8U8 was “active” throughout.
Regarding `COc1cc(C)ccc1O`, the “odorant receptor agonist call” value in the experiment with OR8K5, in the experiment on OR8S1, with OR8U1 and with OR8U8 was “inactive” each time.
As to `CC(C)(C)c1ccc(CCC=O)cc1`, the “odorant receptor agonist call” value with OR8K5, in the experiment on OR8S1, with OR8U1 and in the experiment with OR8U8 was “inactive” in each case.
Regarding `CC(=O)OC1CC2CCC1(C)C2(C)C` (centres undefined), the “odorant receptor agonist call” value in the experiment with OR8K5, in the experiment on OR8S1, with OR8U1 and in the experiment on OR8U8 was “inactive” in each case.
As to `c1ccc(Oc2ccccc2)cc1`, the “odorant receptor agonist call” value with OR8K5, in the experiment with OR8S1, with OR8U1 and in the experiment with OR8U8 was “inactive” in each case.
With `c1cnccn1`, the “odorant receptor agonist call” value with OR8K5, with OR8S1, in the experiment with OR8U1 and in the experiment with OR8U8 was “inactive” each time.
Take `CCCCO`: the “odorant receptor agonist call” value with OR8K5, in the experiment with OR8S1, with OR8U1 and in the experiment on OR8U8 was “inactive” each time.
With `CCC1(O)C2(C)CCC(C2)C1(C)C` (centres undefined), the “odorant receptor agonist call” value in the experiment with OR8K5, with OR8S1, with OR8U1 and in the experiment on OR8U8 was “inactive” each time.
With `CC1=NC(C)SC1C` (centres undefined), the “odorant receptor agonist call” value in the experiment on OR8K5, with OR8S1, with OR8U1 and with OR8U8 was “inactive” each time.
On to `COc1cc(C=O)ccc1O`, for which the “odorant receptor agonist call” value with OR8K5, in the experiment on OR8S1, in the experiment on OR8U1 and in the experiment on OR8U8 was “inactive” each time.
As to `CC1=CCC(C(C)(C)O)CC1` (centres undefined), the “odorant receptor agonist call” value with OR8K5, with OR8S1, with OR8U1 and with OR8U8 was “inactive” throughout.
Turning to `CC12C=CCC1C1CCC3=CC(=O)CCC3(C)C1CC2` (centres undefined), the “odorant receptor agonist call” value in the experiment on OR8K5, in the experiment with OR8S1, in the experiment with OR8U1 and with OR8U8 was “inactive” each time.
In the case of `CCCCCCCCCC=O`, the “odorant receptor agonist call” value in the experiment with OR8K5, with OR8S1, in the experiment on OR8U1 and with OR8U8 was “inactive” in each case.
As for `CCCCCCCC=CC=O`, the “odorant receptor agonist call” value in the experiment with OR8K5, in the experiment with OR8S1, in the experiment with OR8U1 and in the experiment with OR8U8 was “inactive” throughout.
Turning to `CCCCCCCC=O`, the “odorant receptor agonist call” value in the experiment with OR8K5, in the experiment on OR8S1, with OR8U1 and with OR8U8 was “inactive” throughout.
With `CCCCCCCOC(C)=O`, the “odorant receptor agonist call” value in the experiment on OR8K5, with OR8S1, in the experiment with OR8U1 and in the experiment with OR8U8 was “inactive” in each case.
With `CCCCCCCCOC(C)=O`, the “odorant receptor agonist call” value in the experiment with OR8K5, in the experiment with OR8S1, in the experiment on OR8U1 and with OR8U8 was “inactive” in each case.
Consider `O=C1CCCCC1`, for which the “odorant receptor agonist call” value in the experiment with OR8K5, in the experiment on OR8S1, in the experiment with OR8U1 and in the experiment on OR8U8 was “inactive” each time.
As to `CCC=CCCO`, the “odorant receptor agonist call” value in the experiment on OR8K5, with OR8S1, in the experiment with OR8U1 and in the experiment with OR8U8 was “inactive” each time.
